The nature of the series: solid-phase peptide synthesis. As to conditions: whole synthesis; for isolated yield: of theory, scale of the general procedure 0.1 mmol.
[1] abbreviates: one disulfide bridge, sequence written open.
Setting [2] is: scale 0.1 mmol, one disulfide bridge, sequence written open.

Take DNIDPNAVGNL-NH2: the isolated mass is listed as 268 mg and the isolated yield was 67% of theory.
In the case of DNIDPNAVGNLKCIYNTAGFYCDR-NH2, under setting [1], the isolated yield was 13.5% of theory and the isolated mass is 36 mg. Moreover, under setting [2], the crude mass is 145 mg and the crude yield is 54%.

(Values after US20010007020A1 (HOECHST AKTIENGESELLSCHAFT, priority 1997, published 2001).)
